The text below walks through data of PubChem BioAssay AID901 (National Center for Advancing Translational Sciences (NCATS), 2007).

In general, AC50 refers to the midpoint of the concentration-response curve, whichever way the signal moves.

The other results are listed elsewhere or left out. Shown are side measurements of this screen, not its main read-out; they come without a call. Compounds called inactive in the main read-out are mostly missing here. Words in brackets tell the shape of the fitted curve; partial curves, single points and poor fits give uncertain potencies.

This test can be described thus: qHTS Assay for Identifying the Cell-Membrane Permeable IMPase Inhibitors. The note with it: CHO-M1 cells, IP1 accumulation, HTRF TR-FRET ratio; measured here: donor channel 620 nm AC50.
As for `Cc1nc(C)c(C(=O)C2=C(O)C(=O)N(CCN(C)C)C2c2cccs2)s1` (stereo not drawn), the AC50 was 0.631 µM [rising, single point].
Next, `CCCc1ccc(-c2cc(NC(=O)CSc3nnc(N)s3)n(-c3ccccc3)n2)cc1`: 0.0316 µM [falling, full curve, poor fit].
Take `CCOc1cc(CNCc2cccs2)cc(Br)c1OC`: the AC50 was 10 µM [rising, single point].
With `O=C(NCc1ccco1)c1ccc(Cn2cc([N+](=O)[O-])cn2)o1`, the AC50 was 0.316 µM [falling, full curve, poor fit].
Regarding `N#Cc1ccc(CSc2nnc(-c3ccccc3)n2Cc2ccco2)cc1`, the AC50 is 1 µM [falling, full curve, poor fit].
In the case of `CCCS(=O)(=O)Nc1cc2c(cc1NCc1ccccc1)n(C)c(=O)n2C` it was 11.2 µM [falling, partial curve, poor fit]; in that of `Cc1ccc(-c2nc3s/c(=C\c4ccco4)c(=O)n3n2)cc1`, 0.0158 µM [rising, full curve, poor fit]; in that of `CCO/C=C1/C(=O)N(C(C)=O)c2ccccc21`, 0.158 µM [falling, full curve, poor fit].
In the case of `CCOC(=O)c1sc(=NC(=O)c2ccc(S(=O)(=O)N3CC(C)OC(C)C3)cc2)n(C)c1C` (stereo not drawn), the AC50 was 5.01 µM [rising, single point].
Take `O=C(c1ccc(=O)oc1)N1CCOCC1`: the AC50 is 5.01 µM [rising, partial curve].
Next, `Cc1ccc(S(=O)(=O)NC(C)CCc2ccccc2)cc1` (stereo not drawn): 31.6 µM [rising, single point]; `Cc1cc(C(=O)COc2nncc3ccccc23)c(C)n1C`: 0.01 µM [rising, partial curve, poor fit]; `CC(C)OCCCNC(=O)CNC(=O)c1cccs1`: 3.98 µM [falling, partial curve].
As for `Cc1ccc2cc(C#N)c(SCC(=O)N3CCCc4ccccc43)nc2c1C`, the AC50 was 2 µM [falling, partial curve, poor fit].
Regarding `CC(=O)OC(C(=O)NC1CCCCC1)c1ccc(C)cc1` (stereo not drawn), the AC50 is 31.6 µM [rising, single point].
For `CC(=O)c1ccc(NC2=C(N3CCOCC3)C(=O)c3ccccc3C2=O)cc1`, the AC50 is 12.6 µM [falling, single point].
Take `COc1ccc(C(=O)Nc2nc(-c3ccc(OC)cc3)c(-c3ccc([N+](=O)[O-])cc3)s2)cc1`: the AC50 was 0.501 µM [rising, single point].
Consider `COc1ccc(C(=O)Nc2nc3n(n2)C(c2ccc(Cl)cc2)C=C(c2ccccc2)N3)cc1OC` (stereo not drawn), for which the AC50 is 28.2 µM [rising, single point].
In the case of `Nc1cc(C2CCCC2)nn1-c1ccccc1` it was 0.0631 µM [falling, full curve, poor fit]; in that of `CC(c1ccccc1)N1C(=O)NC(NC(=O)c2cccnc2)(C(F)(F)F)C1=O` (stereo not drawn), 0.794 µM [falling, full curve]; in that of `C=CCC(=O)OCCCCCCOc1ccc(C(=O)O)cc1`, 31.6 µM [rising, partial curve, poor fit].
On to `c1ccc2c(c1)Sc1ccccc1-n1cnnc1-2`, for which the AC50 is 5.01 µM [falling, single point].
Regarding `CCn1c(SCC(=O)c2ccc(F)cc2)nnc1-c1ccoc1C`, the AC50 was 0.224 µM [falling, full curve, poor fit].
In the case of `Cc1ccc(/C=N/NC(=O)C(NC(=O)c2ccccc2)c2n[nH]c(=O)c3ccccc23)cc1` (stereo not drawn), the AC50 was 0.1 µM [falling, full curve, poor fit].
As for `CCCCCCCCS(=O)C1CCS(=O)(=O)C1` (stereo not drawn), the AC50 was 0.01 µM [rising, full curve, poor fit].
As to `CC1(C)OC(=O)C(=NNc2ccc(O)cc2)C(=O)O1`, the concentration at half-maximal activity (AC50) is 6.31 µM [falling, single point].
In the case of `CCCCc1c(C)nc2ccc(Br)cc2c1SCCC#N` it was 35.5 µM [rising, single point]; in that of `CCOc1ccc(NC(=O)Cn2cc(C(=O)C3CC3)c3ccccc32)cc1`, 0.0631 µM [falling, full curve, poor fit]; in that of `Cc1occc1C(=O)NN=C1C2CC3CC(C2)CC1C3`, 5.62 µM [rising, single point].
Regarding `COc1ccc(CCNC(=O)c2ccc3nc(-c4ccco4)c(-c4ccco4)nc3c2)cc1OC`, the concentration at half-maximal activity (AC50) is 0.794 µM [falling, full curve].
For the compound `CCOC(=O)c1[nH]c2ccc(Cl)cc2c1NC(=O)c1nonc1C`, the AC50 was 0.0158 µM [falling, full curve, poor fit].
As for `CCCOc1ccc(/C(O)=C2/C(=O)C(=O)N(CCN(CC)CC)C2c2ccncc2)cc1` (stereo not drawn), the concentration at half-maximal activity (AC50) is 3.98 µM [falling, partial curve].
Consider `CCn1c(SC/C=C/c2ccccc2)nnc1-c1cnccn1`, for which the AC50 was 0.794 µM [falling, full curve].
On to `Cc1sc2nc(CN(C(=O)c3cccs3)C3CCCC3)[nH]c(=O)c2c1C`, for which the AC50 is 6.31 µM [rising, single point].
Take `COc1ccnc(NCc2ccc(Cl)cc2)c1C#N`: the AC50 is 31.6 µM [falling, single point].
For the compound `Cc1ccc(C2C=C(c3ccc(Cl)cc3)Nc3nc(NC(=O)c4ccco4)nn32)cc1` (stereo not drawn), the AC50 was 0.00316 µM [rising, full curve, poor fit].
In the case of `CCOC(=O)c1sc(NC(=S)NC(=O)C2CC2)cc1C` it was 10 µM [rising, partial curve, poor fit]; in that of `O=C(CN(C(=O)c1ccco1)c1cccc(F)c1)NCc1ccc(F)cc1`, 0.02 µM [rising, full curve, poor fit]; in that of `Cc1ccc(-c2nc3ccccc3[nH]2)cc1NC(=O)c1sc2cc(Cl)ccc2c1Cl`, 31.6 µM [rising, single point].
Next, `CCOC(=O)c1sc(NC(=O)c2cccnc2)nc1C`: 31.6 µM [rising, single point]; `O=C(CCNc1ccc(Cl)c(C(F)(F)F)c1)c1ccco1`: 5.01 µM [falling, single point].
Next, `N#CC(C#N)=c1ccc2c(c1)NC1(CCCCC1)N=2`: 20 µM [falling, single point].
For `CC(=O)Nc1ccc(S(=O)(=O)Nc2cc(C)c(-n3nc4ccccc4n3)cc2O)cc1`, the AC50 was 35.5 µM [falling, single point].
